In patent US20170008962A1:
No constants are given. Whether binding was seen depends on the method and setting. Some binding calls cover weakened binding; strength is not graded here. For part of these data: Where a sequence is shown, tags or fusion partners need not be part of it.

T1: MICA antigen (UniGene Hs.130838) with C-terminal BirA tag, mono-biotinylated (human) (UniProt Q29983)
T1 sequence: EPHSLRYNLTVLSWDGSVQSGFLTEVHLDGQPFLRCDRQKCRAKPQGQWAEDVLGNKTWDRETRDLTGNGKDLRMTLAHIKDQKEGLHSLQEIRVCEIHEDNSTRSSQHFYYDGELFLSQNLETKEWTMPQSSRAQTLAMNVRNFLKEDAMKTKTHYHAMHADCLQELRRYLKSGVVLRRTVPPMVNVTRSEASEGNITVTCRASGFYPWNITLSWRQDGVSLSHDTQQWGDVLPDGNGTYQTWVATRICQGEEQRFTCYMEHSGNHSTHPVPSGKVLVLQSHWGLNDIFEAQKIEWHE

T2: MICA on tumor cells (human) (UniProt Q29983)
T2 sequence (looked up): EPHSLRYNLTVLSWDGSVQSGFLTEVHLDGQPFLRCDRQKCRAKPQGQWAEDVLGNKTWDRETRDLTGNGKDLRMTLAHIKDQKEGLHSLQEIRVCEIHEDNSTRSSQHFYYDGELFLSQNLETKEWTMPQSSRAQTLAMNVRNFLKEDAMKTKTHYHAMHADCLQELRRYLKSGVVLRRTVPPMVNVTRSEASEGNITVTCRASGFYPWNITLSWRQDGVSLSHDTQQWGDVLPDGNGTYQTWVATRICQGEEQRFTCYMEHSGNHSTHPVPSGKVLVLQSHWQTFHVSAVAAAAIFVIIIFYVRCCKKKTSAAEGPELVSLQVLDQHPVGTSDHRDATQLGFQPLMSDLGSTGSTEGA

T3: soluble, recombinant MICB with a single BirA biotinylation site (human) (UniProt Q29980)
T3 sequence (looked up): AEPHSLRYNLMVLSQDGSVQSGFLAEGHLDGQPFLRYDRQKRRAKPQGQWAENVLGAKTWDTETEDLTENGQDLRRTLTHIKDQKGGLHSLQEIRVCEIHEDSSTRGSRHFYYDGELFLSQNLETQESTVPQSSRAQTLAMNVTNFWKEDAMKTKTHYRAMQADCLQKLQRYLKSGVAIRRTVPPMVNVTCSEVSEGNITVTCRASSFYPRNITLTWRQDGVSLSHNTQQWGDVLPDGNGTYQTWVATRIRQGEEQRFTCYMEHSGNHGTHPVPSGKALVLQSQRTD

T4: recombinant MICA alpha 3 domain, biotinylated (human) (UniProt Q29983)
T4 sequence (looked up): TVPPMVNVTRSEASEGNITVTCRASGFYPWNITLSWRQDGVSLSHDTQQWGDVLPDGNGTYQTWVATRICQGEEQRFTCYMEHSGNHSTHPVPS

B1: MICA-Ab20 (anti-MICA antibody ID-1 of Table 1) (antibody, V domains shown)
VH: QVQLQQWGAGLLKPSETLALTCAVSGGSFTDHYWSWIRQAPGKGLEWIGEINHSGVTNYNPSLKSRLTISVDTSKSQFSLRLTSVTAADTALYYCAKTGLYYDDVWGTFRPRGGFDSWGQGTLVTVSS
VL: DIVMTQSPDSLAVSLGERATINCKSSQSILYSSDNKNYLAWYQHKPGQPPKLLFYWASIRESGVPDRFSGGGSGTDFTLTISSLQAEDVAVYYCQQYYSPPCSFGQGTKLEIQ
B2: CM24002 Ab2 (anti-MICA antibody ID-6 of Table 1) (antibody, V domains shown)
VH: QVQLQESGPGLVEPSGTLSLTCTVSGGSISRSNWWSWVRQPPGEGLEWIGEIHHIGRSSYNPSLKSRVTMSVDKSQNQFSLRLTSVTAADTAVYYCAKNGYYAMDVWGQGTTVTVSS
VL: EIVLTQSPGTLSLSPGERATLSCRASQSVSSDFLAWYQQKPGQAPRLLIYATSFRATGISDRFSGSGSGTDFSLTINRLEPEDFAVYYCQHYRSSPPWYTFAQGTKLDMRRTVAAPSV
B3: CM33322 Ab29 (anti-MICA antibody ID-9 of Table 1) (antibody, V domains shown)
VH: EVQLLESGGGLVQPGGSLRLSCAASGFTFSSYGLTWIRQAPGKGLEWVSSISGSGNNTYYADSVKGRFTISRDKVKKTLYLQMDSLTVGDTAVYYCLGVGQGHGIPVIVSS
VL: DIVMTQTPLSSPVTLGQPASISCRSSQSLVHRDGNTYLSWFLQRPGQAPRLLIYRISNRFSGVPDRFSGSGAGTDFTLKISRVEAEDVGVYYCMQATQIPNTFGQGTKLEIK

Columns and labels:
[1] = biological target: T1, MICA antigen (UniGene Hs.130838) with C-terminal BirA tag, mono-biotinylated (human); experiment: bead assays: commercial MICA Luminex beads and MICA-coated streptavidin beads by flow cytometry
[2] = biological target: T2, MICA on tumor cells (human); experiment: flow cytometry on autologous CD33+CD34+ tumor cells from bone marrow of patient CM24002, antibody at 10 µg/ml
[3] = biological target: T2, MICA on tumor cells (human); experiment: flow cytometry on RPMI 8226, Xg-1, OVCAR3, U937, K028, 1792, 827 and MCF7 cells, directly conjugated antibody
[4] = biological target: T3, soluble, recombinant MICB with a single BirA biotinylation site (human); experiment: cytometric bead assay, biotinylated protein on streptavidin beads, FITC anti-human IgG
[5] = biological target: T4, recombinant MICA alpha 3 domain, biotinylated (human); experiment: cytometric bead assay, biotinylated alpha 3 domain on streptavidin beads, antibody at 10 µg/ml, FITC anti-human IgG

Binder | binding [1] | binding [2] | binding [3] | binding [4] | binding [5]
B1 | binds |  |  |  | 
B2 |  | binds | binds |  | 
B3 |  |  | binds | binds | binds
